# Source: the supplement of paper PMC8728848
# The list shows a part of the results.
# What was measured:
# Test in all cases: glycan array binding signal (z-score within array); higher = stronger binding
# Details in all cases: glycan notation: IUPAC condensed, linker removed
# [1] = target: GlcNAc(b1-2)Gal(b1-3)GalNAc
# Procedure, shortened: (§1)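 The binding signal is a Z-score computed within each array and averaged over linkers. Arrays of the same protein sequence at different concentrations or buffers were also averaged together. Data originate from 3228 arrays in the Consortium for Functional Glycomics database, kept only where the protein sequence was available.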
# [2] = target: GlcNAc(b1-2)Man(a1-3)[GlcNAc(b1-2)Man(a1-6)]Man(b1-4)GlcNAc(b1-4)GlcNAc
# Procedure, shortened: as §1
# [3] = target: GlcNAc(b1-2)Man(a1-3)[GlcNAc(b1-2)Man(a1-6)]Man(b1-4)GlcNAc(b1-4)[Fuc(a1-6)]GlcNAc
# Procedure, shortened: as §1
# [4] = target: GlcNAc(b1-2)Man(a1-3)[GlcNAc(b1-4)][GlcNAc(b1-2)Man(a1-6)]Man(b1-4)GlcNAc(b1-4)GlcNAc
# Procedure, shortened: as §1
# [5] = target: GlcNAc(b1-2)Man(a1-3)[GlcNAc(b1-4)][GlcNAc(b1-2)Man(a1-6)]Man(b1-4)GlcNAc(b1-4)[Fuc(a1-6)]GlcNAc
# Procedure, shortened: as §1
# [6] = target: GlcNAc(b1-2)[GlcNAc(b1-4)]Man(a1-3)[GlcNAc(b1-2)Man(a1-6)]Man(b1-4)GlcNAc(b1-4)GlcNAc
# Procedure, shortened: as §1
# [7] = target: GlcNAc(b1-2)[GlcNAc(b1-4)]Man(a1-3)[GlcNAc(b1-4)][GlcNAc(b1-2)Man(a1-6)]Man(b1-4)GlcNAc(b1-4)GlcNAc
# Procedure, shortened: as §1
# [8] = target: GlcNAc(b1-2)[GlcNAc(b1-4)]Man(a1-3)[GlcNAc(b1-4)][GlcNAc(b1-2)[GlcNAc(b1-6)]Man(a1-6)]Man(b1-4)GlcNAc(b1-4)GlcNAc
# Procedure, shortened: as §1
# [9] = target: GlcNAc(b1-2)[GlcNAc(b1-4)]Man(a1-3)[GlcNAc(b1-4)][GlcNAc(b1-2)[GlcNAc(b1-6)]Man(a1-6)]Man(b1-4)GlcNAc(b1-4)[Fuc(a1-6)]GlcNAc
# Procedure, shortened: as §1
# [10] = target: GlcNAc(b1-2)[GlcNAc(b1-6)]Man(a1-6)[GlcNAc(b1-2)Man(a1-3)]Man(b1-4)GlcNAc(b1-4)GlcNAc
# Procedure, shortened: as §1
# [11] = target: GlcNAc(b1-2)[GlcNAc(b1-6)]Man(a1-6)[GlcNAc(b1-2)Man(a1-3)]Man(b1-4)GlcNAc(b1-4)[Fuc(a1-6)]GlcNAc
# Procedure, shortened: as §1
# [12] = target: GlcNAc(b1-2)[GlcNAc(b1-6)]Man(a1-6)[GlcNAc(b1-4)][GlcNAc(b1-2)Man(a1-3)]Man(b1-4)GlcNAc(b1-4)GlcNAc
# Procedure, shortened: as §1
# [13] = target: GlcNAc(b1-3)Fuc
# Procedure, shortened: as §1
# [14] = target: GlcNAc(b1-3)Gal
# Procedure, shortened: as §1
# [15] = target: GlcNAc(b1-3)Gal(b1-3)GalNAc
# Procedure, shortened: as §1
# [16] = target: GlcNAc(b1-3)Gal(b1-4)Glc
# Procedure, shortened: as §1
# [17] = target: GlcNAc(b1-3)Gal(b1-4)GlcNAc
# Procedure, shortened: as §1
# [18] = target: GlcNAc(b1-3)Gal(b1-4)GlcNAc(b1-2)Man(a1-3)[GlcNAc(b1-3)Gal(b1-4)GlcNAc(b1-2)Man(a1-6)]Man(b1-4)GlcNAc(b1-4)GlcNAc
# Procedure, shortened: as §1
# [19] = target: GlcNAc(b1-3)Gal(b1-4)GlcNAc(b1-2)Man(a1-3)[GlcNAc(b1-3)Gal(b1-4)GlcNAc(b1-2)Man(a1-6)]Man(b1-4)GlcNAc(b1-4)[Fuc(a1-6)]GlcNAc
# Procedure, shortened: as §1
# [20] = target: GlcNAc(b1-3)Gal(b1-4)GlcNAc(b1-2)[GlcNAc(b1-3)Gal(b1-4)GlcNAc(b1-6)]Man(a1-6)[GlcNAc(b1-3)Gal(b1-4)GlcNAc(b1-2)Man(a1-3)]Man(b1-4)GlcNAc(b1-4)GlcNAc
# Procedure, shortened: as §1
# [21] = target: GlcNAc(b1-3)Gal(b1-4)GlcNAc(b1-3)Gal(b1-4)GlcNAc
# Procedure, shortened: as §1
# [22] = target: GlcNAc(b1-3)Gal(b1-4)GlcNAc(b1-3)Gal(b1-4)GlcNAc(b1-2)Man(a1-3)[GlcNAc(b1-3)Gal(b1-4)GlcNAc(b1-3)Gal(b1-4)GlcNAc(b1-2)Man(a1-6)]Man(b1-4)GlcNAc(b1-4)GlcNAc
# Procedure, shortened: as §1
# [23] = target: GlcNAc(b1-3)Gal(b1-4)GlcNAc(b1-3)Gal(b1-4)GlcNAc(b1-2)Man(a1-3)[GlcNAc(b1-3)Gal(b1-4)GlcNAc(b1-3)Gal(b1-4)GlcNAc(b1-2)Man(a1-6)]Man(b1-4)GlcNAc(b1-4)[Fuc(a1-6)]GlcNAc
# Procedure, shortened: as §1
# [24] = target: GlcNAc(b1-3)Gal(b1-4)GlcNAc(b1-3)Gal(b1-4)GlcNAc(b1-2)[GlcNAc(b1-3)Gal(b1-4)GlcNAc(b1-3)Gal(b1-4)GlcNAc(b1-6)]Man(a1-6)[GlcNAc(b1-3)Gal(b1-4)GlcNAc(b1-3)Gal(b1-4)GlcNAc(b1-2)Man(a1-3)]Man(b1-4)GlcNAc(b1-4)[Fuc(a1-6)]GlcNAc
# Procedure, shortened: as §1
# [25] = target: GlcNAc(b1-3)Gal(b1-4)GlcNAc(b1-3)Gal(b1-4)GlcNAc(b1-3)Gal(b1-4)GlcNAc(b1-2)Man(a1-3)[GlcNAc(b1-3)Gal(b1-4)GlcNAc(b1-3)Gal(b1-4)GlcNAc(b1-3)Gal(b1-4)GlcNAc(b1-2)Man(a1-6)]Man(b1-4)GlcNAc(b1-4)GlcNAc
# Procedure, shortened: as §1
# [26] = target: GlcNAc(b1-3)Gal(b1-4)GlcNAc(b1-3)Gal(b1-4)GlcNAc(b1-3)Gal(b1-4)GlcNAc(b1-2)Man(a1-3)[GlcNAc(b1-3)Gal(b1-4)GlcNAc(b1-3)Gal(b1-4)GlcNAc(b1-3)Gal(b1-4)GlcNAc(b1-2)Man(a1-6)]Man(b1-4)GlcNAc(b1-4)[Fuc(a1-6)]GlcNAc
# Procedure, shortened: as §1
# [27] = target: GlcNAc(b1-3)Gal(b1-4)GlcNAc(b1-3)Gal(b1-4)GlcNAc(b1-3)Gal(b1-4)GlcNAc(b1-2)[GlcNAc(b1-3)Gal(b1-4)GlcNAc(b1-3)Gal(b1-4)GlcNAc(b1-3)Gal(b1-4)GlcNAc(b1-6)]Man(a1-6)[GlcNAc(b1-3)Gal(b1-4)GlcNAc(b1-3)Gal(b1-4)GlcNAc(b1-3)Gal(b1-4)GlcNAc(b1-2)Man(a1-3)]Man(b1-4)GlcNAc(b1-4)[Fuc(a1-6)]GlcNAc
# Procedure, shortened: as §1
# [28] = target: GlcNAc(b1-3)Gal(b1-4)GlcNAc(b1-3)Gal(b1-4)GlcNAc(b1-3)Gal(b1-4)GlcNAc(b1-3)Gal(b1-4)GlcNAc(b1-2)Man(a1-3)[GlcNAc(b1-3)Gal(b1-4)GlcNAc(b1-3)Gal(b1-4)GlcNAc(b1-3)Gal(b1-4)GlcNAc(b1-3)Gal(b1-4)GlcNAc(b1-2)Man(a1-6)]Man(b1-4)GlcNAc(b1-4)GlcNAc
# Procedure, shortened: as §1
# [29] = target: GlcNAc(b1-3)Gal(b1-4)GlcNAc(b1-3)Gal(b1-4)GlcNAc(b1-3)Gal(b1-4)GlcNAc(b1-3)Gal(b1-4)GlcNAc(b1-2)Man(a1-3)[GlcNAc(b1-3)Gal(b1-4)GlcNAc(b1-3)Gal(b1-4)GlcNAc(b1-3)Gal(b1-4)GlcNAc(b1-3)Gal(b1-4)GlcNAc(b1-2)Man(a1-6)]Man(b1-4)GlcNAc(b1-4)[Fuc(a1-6)]GlcNAc
# Procedure, shortened: as §1
# [30] = target: GlcNAc(b1-3)Gal(b1-4)GlcNAc(b1-3)Gal(b1-4)GlcNAc(b1-3)Gal(b1-4)GlcNAc(b1-3)Gal(b1-4)GlcNAc(b1-2)[GlcNAc(b1-3)Gal(b1-4)GlcNAc(b1-3)Gal(b1-4)GlcNAc(b1-3)Gal(b1-4)GlcNAc(b1-3)Gal(b1-4)GlcNAc(b1-6)]Man(a1-6)[GlcNAc(b1-3)Gal(b1-4)GlcNAc(b1-3)Gal(b1-4)GlcNAc(b1-3)Gal(b1-4)GlcNAc(b1-3)Gal(b1-4)GlcNAc(b1-2)Man(a1-3)]Man(b1-4)GlcNAc(b1-4)[Fuc(a1-6)]GlcNAc
# Procedure, shortened: as §1
binder,measurement,setting,value
"Thrombomodulin Extracellular (Mus musculus), P15306 (protein) MLGIFFLGVLAPASLGLSALAKLQPTGSQCVEHECFALFQGPATFLDASQACQRLQGHLMTVRSSVAADVISLLLSQSSMDLGPWIGLQLPQGCDDPVHLGPLRGFQWVTGDNHTSYSRWARPNDQTAPLCGPLCVTVSTATEAAPGEPAWEEKPCETETQGFLCEFYFTASCRPLTVNTRDPEAAHISSTYNTPFGVSGADFQTLPVGSSAAVEPLGLELVCRAPPGTSEGHWAWEATGAWNCSVENGGCEYLCNRSTNEPRCLCPRDMDLQADGRSCARPVVQSCNELCEHFCVSNAEVPGSYSCMCETGYQLAADGHRCEDVDDCKQGPNPCPQLCVNTKGGFECFCYDGYELVDGECVELLDPCFGSNCEFQCQPVSPTDYRCICAPGFAPKPDEPHKCEMFCNETSCPADCDPNSPTVCECPEGFILDEGSVCTDIDECSQGECFTSECRNFPGSYECICGPDTALAGQISKDCDPIPVREDTKEEEGSGEPPVSPTPGSPTGPPSARPVHSGVLIGISIASLSLVVALLALLCHLRKKQGAARAELEYKCASSAKEVVLQHVRTDRTLQKF",glycan array binding signal (z-score),[1],-0.96
same,glycan array binding signal (z-score),[2],-0.469
same,glycan array binding signal (z-score),[3],-0.307
same,glycan array binding signal (z-score),[4],-0.688
same,glycan array binding signal (z-score),[5],-0.159
same,glycan array binding signal (z-score),[6],0.907
same,glycan array binding signal (z-score),[7],0.101
same,glycan array binding signal (z-score),[8],-0.626
same,glycan array binding signal (z-score),[9],0.536
same,glycan array binding signal (z-score),[10],-2.15
same,glycan array binding signal (z-score),[11],1.44
same,glycan array binding signal (z-score),[12],0.802
same,glycan array binding signal (z-score),[13],-0.565
same,glycan array binding signal (z-score),[14],-0.546
same,glycan array binding signal (z-score),[15],0.123
same,glycan array binding signal (z-score),[16],0.942
same,glycan array binding signal (z-score),[17],-0.11
same,glycan array binding signal (z-score),[18],0.223
same,glycan array binding signal (z-score),[19],0.834
same,glycan array binding signal (z-score),[20],-0.238
same,glycan array binding signal (z-score),[21],0.57
same,glycan array binding signal (z-score),[22],0.261
same,glycan array binding signal (z-score),[23],0.584
same,glycan array binding signal (z-score),[24],0.325
same,glycan array binding signal (z-score),[25],2.08
same,glycan array binding signal (z-score),[26],1.85
same,glycan array binding signal (z-score),[27],0.27
same,glycan array binding signal (z-score),[28],-0.332
same,glycan array binding signal (z-score),[29],1.43
same,glycan array binding signal (z-score),[30],2.07

# Nothing new here: an excerpt of the list.
binder,measurement,setting,value
"Thrombomodulin Extracellular (Mus musculus), P15306 (protein) MLGIFFLGVLAPASLGLSALAKLQPTGSQCVEHECFALFQGPATFLDASQACQRLQGHLMTVRSSVAADVISLLLSQSSMDLGPWIGLQLPQGCDDPVHLGPLRGFQWVTGDNHTSYSRWARPNDQTAPLCGPLCVTVSTATEAAPGEPAWEEKPCETETQGFLCEFYFTASCRPLTVNTRDPEAAHISSTYNTPFGVSGADFQTLPVGSSAAVEPLGLELVCRAPPGTSEGHWAWEATGAWNCSVENGGCEYLCNRSTNEPRCLCPRDMDLQADGRSCARPVVQSCNELCEHFCVSNAEVPGSYSCMCETGYQLAADGHRCEDVDDCKQGPNPCPQLCVNTKGGFECFCYDGYELVDGECVELLDPCFGSNCEFQCQPVSPTDYRCICAPGFAPKPDEPHKCEMFCNETSCPADCDPNSPTVCECPEGFILDEGSVCTDIDECSQGECFTSECRNFPGSYECICGPDTALAGQISKDCDPIPVREDTKEEEGSGEPPVSPTPGSPTGPPSARPVHSGVLIGISIASLSLVVALLALLCHLRKKQGAARAELEYKCASSAKEVVLQHVRTDRTLQKF",glycan array binding signal (z-score),[19],0.834
same,glycan array binding signal (z-score),[20],-0.238
